{"source": "PubChem BioAssay AID686943 – Drosophila RNAi Screening Center, 2013", "purpose": "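Knockdowns that increase or decrease active ERK after insulin receptor stimulation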 (primary screen)", "cell system": "Drosophila S2R+ haemocyte-like cells expressing YFP-tagged ERK (Rolled)", "reagent": "long dsRNA against Drosophila genes", "conditions": "insulin stimulation versus unstimulated cells; dose and duration not given", "read-out": "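Per-plate z-scores of phospho-ERK immunostaining normalised to YFP-tagged ERK, measured with and without insulin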", "reading the numbers": "replicate 1, z-score of dpERK with insulin: higher = more active ERK per ERK-YFP after insulin", "note": "In all, the deposit lists about 23,000 reagents; this is an unselected part of those with a known target gene and a result. 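Extra replicates exist only for a retested subset of genes; insulin dose and duration not given; both raised and lowered dpERK matter.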 Further read-outs or replicates are left out here. The record does not give: the amount of reagent, the time to read-out."}
{"Target gene": "CG14071", "dsRNA": "DRSC02374", "replicate 1, z-score of dpERK with insulin": -0.14}
{"Target gene": "PPO1", "dsRNA": "DRSC05929", "replicate 1, z-score of dpERK with insulin": 0.15}
{"Target gene": "Ae2", "dsRNA": "DRSC08997", "replicate 1, z-score of dpERK with insulin": -2.68}
{"Target gene": "Ae2", "dsRNA": "DRSC10969", "replicate 1, z-score of dpERK with insulin": -0.09}
{"Target gene": "CG40498", "dsRNA": "DRSC07786", "replicate 1, z-score of dpERK with insulin": -0.03}
{"Target gene": "Sh3beta", "dsRNA": "DRSC11001", "replicate 1, z-score of dpERK with insulin": 0.08}
{"Target gene": "Sh3beta", "dsRNA": "DRSC22053", "replicate 1, z-score of dpERK with insulin": 0.2}
{"Target gene": "Vha100-5", "dsRNA": "DRSC02175", "replicate 1, z-score of dpERK with insulin": -1.32}
{"Target gene": "robl22E", "dsRNA": "DRSC00289", "replicate 1, z-score of dpERK with insulin": -0.13}
{"Target gene": "Aldh", "dsRNA": "DRSC02717", "replicate 1, z-score of dpERK with insulin": -0.42}
{"Target gene": "rept", "dsRNA": "DRSC11388", "replicate 1, z-score of dpERK with insulin": 0.3}

Next part; the last 4 above are carried over.
{"Target gene": "Vha100-5", "dsRNA": "DRSC02175", "replicate 1, z-score of dpERK with insulin": -1.32}
{"Target gene": "robl22E", "dsRNA": "DRSC00289", "replicate 1, z-score of dpERK with insulin": -0.13}
{"Target gene": "Aldh", "dsRNA": "DRSC02717", "replicate 1, z-score of dpERK with insulin": -0.42}
{"Target gene": "rept", "dsRNA": "DRSC11388", "replicate 1, z-score of dpERK with insulin": 0.3}
{"Target gene": "CG43074", "dsRNA": "DRSC08044", "replicate 1, z-score of dpERK with insulin": -0.67}
{"Target gene": "hep", "dsRNA": "DRSC19839", "replicate 1, z-score of dpERK with insulin": 1.21}
{"Target gene": "hep", "dsRNA": "DRSC20337", "replicate 1, z-score of dpERK with insulin": 0.2}
{"Target gene": "Ugt37A3", "dsRNA": "DRSC15937", "replicate 1, z-score of dpERK with insulin": -0.17}
{"Target gene": "CG33673", "dsRNA": "DRSC00084", "replicate 1, z-score of dpERK with insulin": 0.47}
{"Target gene": "Or45a", "dsRNA": "DRSC07487", "replicate 1, z-score of dpERK with insulin": -0.02}
{"Target gene": "Rad9", "dsRNA": "DRSC11263", "replicate 1, z-score of dpERK with insulin": 0.08}
{"Target gene": "TrpA1", "dsRNA": "DRSC10544", "replicate 1, z-score of dpERK with insulin": 0.68}
{"Target gene": "CG10418", "dsRNA": "DRSC09720", "replicate 1, z-score of dpERK with insulin": 1.3}
{"Target gene": "betaTub85D", "dsRNA": "DRSC16910", "replicate 1, z-score of dpERK with insulin": 0.35}
{"Target gene": "CG15382", "dsRNA": "DRSC00397", "replicate 1, z-score of dpERK with insulin": 0.3}
{"Target gene": "CG6800", "dsRNA": "DRSC16119", "replicate 1, z-score of dpERK with insulin": -0.04}
{"Target gene": "CG3927", "dsRNA": "DRSC04433", "replicate 1, z-score of dpERK with insulin": 0.55}
{"Target gene": "CG3927", "dsRNA": "DRSC22813", "replicate 1, z-score of dpERK with insulin": -0.74}
{"Target gene": "CG8401", "dsRNA": "DRSC07165", "replicate 1, z-score of dpERK with insulin": -0.28}
{"Target gene": "CG17777", "dsRNA": "DRSC18137", "replicate 1, z-score of dpERK with insulin": 0.04}
{"Target gene": "kumpel", "dsRNA": "DRSC14883", "replicate 1, z-score of dpERK with insulin": -0.03}
{"Target gene": "kumpel", "dsRNA": "DRSC16459", "replicate 1, z-score of dpERK with insulin": -0.17}
{"Target gene": "kumpel", "dsRNA": "DRSC16460", "replicate 1, z-score of dpERK with insulin": 0.3}
{"Target gene": "kumpel", "dsRNA": "DRSC16461", "replicate 1, z-score of dpERK with insulin": -0.44}
{"Target gene": "kumpel", "dsRNA": "DRSC16462", "replicate 1, z-score of dpERK with insulin": 0.39}
{"Target gene": "kumpel", "dsRNA": "DRSC16463", "replicate 1, z-score of dpERK with insulin": 0.77}
